According to publication PMC8262886, “The Breadth and Molecular Basis of Hcp-Driven Type VI Secretion System Effector Delivery” (mBio, 2021):

B1: PA4226 PchE (protein, UniProt G3XCV2 1-1438)
chain: MDLPPDSRTALRDWLTEQLADLLGEPLADVRALADDDDLLGCGLDSIRLMYLQERLRARGSTLDFAQLAQRPCLGAWLDLLACADRLSAPATVALPTAQDRDQPFELSSVQQAYWLGRGAGEVLGNVSCHAFLEFRTRDVDPQRLAAAAECVRQRHPMLRARFLDGRQQILPTPPLSCFDLQDWRTLQVDEAERDWQALRDWRAHECLAVERGQVFLLGLVRMPGGEDRLWLSLDLLAADVESLRLLLAELGVAYLAPERLAEPPALHFADYLAHRAAQRAEAAARARDYWLERLPRLPDAPALPLACAPESIRQPRTRRLAFQLSAGESRRLERLAAQHGVTLSSVFGCAFALVLARWSESAEFLLNVPLFDRHADDPRIGEVIADFTTLLLLECRMQAGVSFAEAVKSFQRNLHGAIDHAAFPALEVLREARRQGQPRSAPVVFASNLGEEGFVPAAFRDAFGDLHDMLSQTPQVWLDHQLYRVGDGILLAWDSVVGLFPEGLPETMFEAYVGLLQRLCDSAWGQPADLPLPWAQQARRALLNGQPACATARTLHRDFFLRAAEAPDADALLYRDQRVTRGELAERALRIAGGLREAGVRPGDAVEVSLPRGPQQVAAVFGVLAAGACYVPLDIDQPPARRRLIEEAAGVCLAITEEDDPQALPPRLDVQRLLRGPALAAPVPLAPQASAYVIYTSGSTGVPKGVEVSHAAAINTIDALLDLLRVNASDRLLAVSALDFDLSVFDLFGGLGAGASLVLPAQEQARDAAAWAEAIQRHAVSLWNSAPALLEMALSLPASQADYRSLRAVLLSGDWVALDLPGRLRPRCAEGCRLHVLGGATEAGIWSNLQSVDTVPPHWRSIPYGRPLPGQAYRVVDTHGRDVPDLVVGELWIGGASLARGYRNDPELSARRFVHDAQGRWYRTGDRGRYWGDGTLEFLGRVDQQVKVRGQRIELGEVEAALCAQAGVESACAAVLGGGVASLGAVLVPRLAPRAEGSMDLPAAQPFAGLAEAEAVLTREILGALLEAPLELDDGLRRRWLDWLADSAASALPSLDEALRRLGWQAAGLTAMGNALRGLLAGEQAPAALLLDPWLAPQAVAARLPDGREALARLLEALPTPAAGERLRVAVLDTRAGLWLDQGMASLLRPGLELTLFERSRVLLDAAATRLPERIVVQALDDGLLPAEHLGRYDRVISFAALHAYEASREGLALAAALLRPQGRLLLVDLLCESPLALLGAALLDDRPLRLAELPSLLADLAAAGLAPRCLWRSERIALVEALAPGLGLDAAALQAGLEQRLPQAMRPERLWCLPSLPLNGNGKVDRRRLAESMTRALGECRHEPSAEEPLEAHEQALAECWEAVLKRPVRRREASFFSLGGDSLLATRLLAGIRERFGVRLGMADFYRQPTLAGLARHLQVQTVEIEETQLEEGVL
B2: PA0771 Era (protein, UniProt Q9XCX8 1-305)
chain: MTDMHDDIPAGSRCGYVAIVGRPNVGKSTLLNHILGQKLAITSRKPQTTRHNMLGIKTEGEVQAVYVDTPGLHKSGEKALNRYMNRTASAALKDVDVVIFVVDRTRWTEEDQMVLERVQYVSCPVLIAVNKTDRIEEKADLLPHLEWLTQQLPKAEVVPISAQHGTNLDVLEKLVAERLPESEHFFPEDQITDRSSRFLAAELVREKIMRQLGAELPYQITVEIEEFKQEGRILHIHALILVEREGQKKIIIGDKGERIKSIGQNARKDMEVLFDSKVMLNLWVKVKGGWSDDERALRSLGYGDL
B3: PA4920 NadE (protein, UniProt Q9HUP3 1-275)
chain: MQQIQRDIAQALQVQPPFQSEADVQAQIARRIAFIQQCLKDSGLKTLVLGISGGVDSLTAGLLAQRAVEQLREQTGDQAYRFIAVRLPYQVQQDEADAQASLATIRADEEQTVNIGPSVKALAEQLEALEGLEPAKSDFVIGNIKARIRMVAQYAIAGARGGLVIGTDHAAEAVMGFFTKFGDGACDLAPLSGLAKHQVRALARALGAPENLVEKIPTADLEDLRPGHPDEASHGVTYAEIDAFLHGQPLREEAARVIVDTYHKTQHKRELPKAP
B4: PA3182 PgI (protein, UniProt Q9X2N2 1-238)
chain: MAISELKLPAGVGLQVWGSAAEQARGLAAEVAGRLRSALAEQGQALLVVSGGRSPVAFLEALSEEPLDWSRITVSLADERWVPESHADSNAGLVRRHLLRGEAAKARFIGLYQPAASLEEAAELADHHLHELPLPIDVLVLGMGDDGHTASLFPNSPGLDLAMDPQGTRRCLPMWAPSVPHQRLTLPRAVLAAAKVQLLAIQGQSKLATLNAALAVEDERRMPVRAFLRAPLTIHWYP
B5: PA2066 (protein, UniProt Q9I249 1-212)
chain: MSPTLQDARLLWDFLGQGRCHVPCELLVVCGSYDLRVCDHACELLERGLAERLLFTGNTGHWTRHLWVEPEAELFARHARARGVSDSLIVIEPRATNFAENIAFARELFPDLRRATFVTKPNSIRRVALTLPVRWPGLEGHVDAPDYAFPDGISNLVGVLGVIDEMVGDLDRIMRYPALGFQVACPIPAQVMDAWERLVARGFDRHLVNPPR

Assays:
[1] = biological target: Hcp2-FLAG (P. aeruginosa); experiment: affinity purification with mass spectrometry; Hcp1/2/3-FLAG expressed from pME6032 in P. aeruginosa PAO1 ΔrsmA; cells cross-linked with 5 mM DTBP, sonicated; soluble fraction on anti-FLAG M2 magnetic beads in PBS at 4°C; on-bead digestion, LFQ against untagged Hcp and cognate VgrG-FLAG controls; three independent experiments
[2] = biological target: Hcp3-FLAG (P. aeruginosa); experiment: as above

| Binder | binding [1] | binding [2] |
| --- | --- | --- |
| B1 | binds | – |
| B2 | – | binds |
| B3 | – | binds |
| B4 | – | binds |
| B5 | binds | – |

No constants are given. Whether binding was seen depends on the method and setting. In cells and extracts the contact can be indirect. These calls come from enrichment with a bait or labelling near it, and not all partners need be listed.
